Source: PubChem BioAssay AID1159584 (Peter MacCallum Cancer Centre, 2016)

- Purpose: 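Knock-downs that harm CDH1-null cells more than parental MCF10A cells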 (primary screen)
- Cell system: human MCF10A breast epithelial cells, parental and CDH1-null
- Reagents: siRNA against human genes
- Detection: 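Cell viability by CellTiter-Glo ATP luminescence, each line scaled to the mean of mock wells across plates, then CDH1-null over parental ratio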
- Direction: CDH1-null / parental viability ratio: higher = CDH1-null cells survive relatively better than parental; CDH1-null viability vs mock: higher = more viable CDH1-null cells; parental viability vs mock: higher = more viable parental cells
This is an unselected part of about 18,000 deposited reagents. The record does not give: the amount of reagent, the time to read-out.

no.	target gene	CDH1-null / parental viability ratio	CDH1-null viability vs mock (fraction of mock)	parental viability vs mock (fraction of mock)
1	AKAP13 (A-kinase anchoring protein 13)	0.8	0.7	0.88
2	MFAP1 (microfibril associated protein 1)	1.3	0.3	0.23
3	BTN2A1 (butyrophilin subfamily 2 member A1)	1.2	0.78	0.65
4	TLX1 (T cell leukemia homeobox 1)	1.16	1.14	0.98
5	GRIK1 (glutamate ionotropic receptor kainate type subunit 1)	1.36	1.1	0.81
6	ACTR2 (actin related protein 2)	1.17	0.98	0.84
7	SPTSSA (serine palmitoyltransferase small subunit A)	1.16	1.04	0.9
8	COPG1 (coat protein complex I subunit gamma 1)	0.97	0.32	0.33
9	CCNG2 (cyclin G2)	1.02	1.02	1
10	TTC13 (tetratricopeptide repeat domain 13)	1.61	0.45	0.28
11	RPLP0 (ribosomal protein lateral stalk subunit P0)	1.06	0.36	0.34
12	VWA3B (von Willebrand factor A domain containing 3B)	0.98	1	1.02
13	FASTKD5 (FASTK mitochondrial RNA regulator 5)	0.91	0.67	0.74
14	DNAL1 (dynein axonemal light chain 1)	0.96	0.73	0.76
15	MCM10 (minichromosome maintenance 10 replication initiation factor)	0.9	0.74	0.82
16	SEMA6C (semaphorin 6C)	1.43	1.1	0.77
17	EDF1 (endothelial differentiation related factor 1)	0.95	0.89	0.94
18	PADI4 (peptidyl arginine deiminase 4)	0.94	0.9	0.96
19	POP7 (POP7 ribonuclease P/MRP subunit)	0.84	0.72	0.86
20	HYAL4 (hyaluronidase 4)	1.17	0.42	0.36
21	FBXO7 (F-box protein 7)	1.15	0.69	0.6
22	LINGO1 (leucine rich repeat and Ig domain containing 1)	0.92	0.66	0.72
23	TMEM165 (transmembrane protein 165)	1.21	0.76	0.63
24	ZNF257 (zinc finger protein 257)	0.95	0.7	0.74
25	PSMA8 (proteasome 20S subunit alpha 8)	1.27	0.76	0.6
26	MTAP (methylthioadenosine phosphorylase)	1.02	0.84	0.82
27	YOD1 (YOD1 deubiquitinase)	1.04	0.5	0.48
28	SLC2A3	1.09	1.1	1.01
